Reference: PMC5882894
Results are given in words; binding and its absence hold for the method and conditions named. In cells and extracts the contact can be indirect. A result given as binding can be weak or reduced; the word gives no strength.

The chains behind the UniProt entries cited, without tags or fusion partners. Where a name states a change or a piece, a line headed by the entry shows the natural chain unless it says otherwise.
UniProt P11275: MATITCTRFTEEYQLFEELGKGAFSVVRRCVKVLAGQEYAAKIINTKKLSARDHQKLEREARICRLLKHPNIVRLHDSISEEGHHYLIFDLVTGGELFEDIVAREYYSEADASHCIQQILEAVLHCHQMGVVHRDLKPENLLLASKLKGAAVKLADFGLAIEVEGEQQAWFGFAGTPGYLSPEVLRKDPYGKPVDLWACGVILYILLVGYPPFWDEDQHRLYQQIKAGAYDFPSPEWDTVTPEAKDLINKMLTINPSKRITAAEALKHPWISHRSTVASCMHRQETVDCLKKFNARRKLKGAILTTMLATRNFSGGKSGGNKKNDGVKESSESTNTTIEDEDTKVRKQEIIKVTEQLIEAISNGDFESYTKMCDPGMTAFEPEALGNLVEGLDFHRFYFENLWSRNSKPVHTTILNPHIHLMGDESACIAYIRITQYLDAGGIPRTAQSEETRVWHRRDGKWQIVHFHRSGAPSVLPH
UniProt P08413: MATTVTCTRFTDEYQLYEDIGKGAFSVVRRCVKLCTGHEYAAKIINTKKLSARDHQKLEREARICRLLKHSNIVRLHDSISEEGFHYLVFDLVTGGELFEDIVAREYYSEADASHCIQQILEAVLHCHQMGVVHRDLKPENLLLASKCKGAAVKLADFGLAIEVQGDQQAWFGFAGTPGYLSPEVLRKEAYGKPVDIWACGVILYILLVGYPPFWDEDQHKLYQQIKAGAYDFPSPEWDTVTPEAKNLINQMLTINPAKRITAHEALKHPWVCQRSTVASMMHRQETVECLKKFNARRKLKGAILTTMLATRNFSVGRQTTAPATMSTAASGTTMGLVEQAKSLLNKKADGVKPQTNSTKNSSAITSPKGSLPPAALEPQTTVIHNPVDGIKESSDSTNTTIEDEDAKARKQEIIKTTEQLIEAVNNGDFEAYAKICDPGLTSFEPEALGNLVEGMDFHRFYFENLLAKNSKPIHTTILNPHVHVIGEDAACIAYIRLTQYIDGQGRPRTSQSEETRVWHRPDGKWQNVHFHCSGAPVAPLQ

Biological target: mCherry-labelled CaMKIIα hub domain (UniProt P11275)
Test: FRET or BRET; live Cos-7 cells co-transfected with mCherry and GFP expression vectors (4:1), imaged 24 h later; corrected FRET (FRETC) divided by donor intensity; cytoplasm and nucleus

binding: binds
Substance: full-length GFP-CaMKIIβ (Cos-7) (from UniProt P08413 1-542) (enzyme)
